The supplement of paper PMC3682954
Where “and” joins values, the source holds several entries; their conditions need not be identical. Equal values may be shown once. Where a name gives a salt, the structure may show the parent alone. ± gives the standard deviation of the averaged measurements. Some of the results follow. Most values come without repeats; read them as rough.

Test system: RAW 264.7
Test: HMGB1-induced TNF-alpha production relative to HMGB1-stimulated control; higher = more TNF-alpha secretion (less inhibition)
Conditions: stimulus: HMGB1 5 ug/ml, 18 h
[1] = compound concentration: 1 ug/ml

Row | SMILES | HMGB1-induced TNF-alpha production (compound concentration: 3 uM) | HMGB1-induced TNF-alpha production [1] [%]
1 | C=CCC1(CC(C)C)C(=O)NC(=O)NC1=O [Butalbital] | 80.7% | 
2 | O=C1CCO1 | 93 ± 6% | 
3 | O=C(CCCN1CCC(n2c(=O)[nH]c3ccccc32)CC1)c1ccc(F)cc1 [Benperidol] | 74.6% | 
4 | COc1ccc(C(=O)OC2C[C@H]3CC[C@@H](C2)N3C)cc1OC (stereo partly specified) [Convolamine hydrochloride] | 101% | 
5 | CN[C@@H]1[C@H]2[C@@H]3CCN2C[C@H]1O3 [Loline] |  | 71.8
6 | C[C@@H]1CC[C@]2(NC1)O[C@H]1C[C@H]3[C@@H]4CC=C5C[C@@H](O)CC[C@]5(C)[C@H]4CC[C@]3(C)[C@H]1[C@@H]2C [Solasodine] |  | 72.1
7 | Cc1ccc2[nH]cc(CCN)c2c1 [5-Methyltryptamine Hydrochloride] |  | 83.7
8 | CCC(=O)O[C@H]1CC[C@H]2[C@@H]3CCC4=CC(=O)CC[C@]4(C)[C@H]3CC[C@]12C [Testosterone propionate] | 103% | 
9 | CCC(=O)O[C@H]1CC[C@H]2[C@@H]3CCC4=CC(=O)CC[C@]4(C)[C@H]3CC[C@]12C | 93.5% | 
10 | COc1ccc(OC)c(C(O)C(C)N)c1 (stereo unspecified) | 86.7% | 
11 | COc1ccc(OC)c(C(O)C(C)N)c1 (stereo unspecified) [Methoxamine hydrochloride] | 91.8 ± 20% | 
12 | Cc1o[nH]c(=O)c1CC(N)C(=O)O (racemic) [(±)-AMPA hydrobromide] | 61% | 
13 | CCCCOC(=O)c1ccccc1C(=O)OCCCC | 85.5% | 
14 | CC[C@@H](CO)NC(=O)[C@@H]1C=C2c3cccc4[nH]cc(c34)C[C@H]2N(C)C1 [Methylergometrine maleate] | 72% | 
15 | CC[C@@H](CO)NC(=O)[C@@H]1C=C2c3cccc4[nH]cc(c34)C[C@H]2N(C)C1 [Methylergonovine maleate] | 98.2% | 
16 | CC[C@@H](CO)NC(=O)[C@@H]1C=C2c3cccc4[nH]cc(c34)C[C@H]2N(C)C1 | 91.6% | 
17 | CCC1(C2=NCCN2)Cc2ccccc2O1 (stereo unspecified) | 99.3% | 
18 | CCC1(C2=NCCN2)Cc2ccccc2O1 (stereo unspecified) [Efaroxan hydrochloride] | 78% | 
19 | CCC1(C2=NCCN2)Cc2ccccc2O1 (stereo unspecified) [Efaroxan] | 90.5% | 
20 | CCOC(=O)c1ncn2c1[C@@H]1CCCN1C(=O)c1cc(OC)ccc1-2 | 111% | 
21 | NC(N)=Nc1ccc2[nH]c3c(c2c1)C[C@@]1(O)[C@H]2Cc4ccc(O)c5c4[C@@]1(CCN2CC1CC1)[C@H]3O5 [Guanidinyl-naltrindole di-trifluoroacetate] | 102% | 

Row | SMILES | HMGB1-induced TNF-alpha production (compound concentration: 3 uM) | HMGB1-induced TNF-alpha production [1] [%]
22 | C[C@@H]1C[C@@H]([C@H](O)CC2CC(=O)NC(=O)C2)C(=O)[C@@H](C)C1 [Cycloheximide] | 10.9% | 
23 | C[C@@H]1C[C@@H]([C@H](O)CC2CC(=O)NC(=O)C2)C(=O)[C@@H](C)C1 | 14.6% | 
24 | CN1[C@@H]2CC[C@H]1C[C@@H](OC(=O)c1cc(Cl)cc(Cl)c1)C2 [3-Tropanyl-3,5-dichlorobenzoate] | 105% | 
25 | O=C(O)C(Cl)Cl | 106% | 
26 | CC(C)(C)c1cc(C=C(C#N)C#N)cc(C(C)(C)C)c1O [Tyrphostin A9] | 289% | 
27 | O=C(O)c1nn(Cc2ccc(Cl)cc2Cl)c2ccccc12 [Lonidamine] | 98.5% | 
28 | O=C(O)c1nn(Cc2ccc(Cl)cc2Cl)c2ccccc12 | 91.9% | 
29 | COc1ccc2c(c1OC)C(=O)O[C@@H]2[C@H]1c2cc3c(cc2CCN1C)OCO3 | 78.2% | 
30 | COc1ccc2c(c1OC)C(=O)O[C@@H]2[C@H]1c2cc3c(cc2CCN1C)OCO3 [(1R,9S)-(-)-beta-Hydrastine ; Hydrastine] |  | 80.8
31 | Cc1cc(C(C#N)c2ccc(Cl)cc2)c(Cl)cc1NC(=O)c1cc(I)cc(I)c1O (stereo unspecified) [Closantel] | 67 ± 12% | 
32 | O=c1[nH]oc2c1CCNC2 [THIP Hydrochloride] | 98.8% | 
33 | O=c1[nH]oc2c1CCNC2 [THIP hydrochloride] | 98.2% | 
34 | CC(C)(O)[C@@H]1[C@H]2OC(=O)[C@@H]1[C@]1(O)C[C@H]3O[C@]34C(=O)O[C@H]2[C@]14C [Picrotin] |  | 81
35 | NC(Cc1cc(O)c(O)cc1O)C(=O)O (racemic) [6-Hydroxy-DL-DOPA] | 98.1% | 
36 | C[N+]1(C)[C@@H]2CC(OC(=O)[C@H](CO)c3ccccc3)C[C@H]1[C@@H]1O[C@@H]12 (single isomer, unassigned; (-)) [(-)-Scopolamine methyl nitrate] | 90.7% | 
37 | C[N+]1(C)CCc2cc3c(cc2[C@H]1[C@@H]1OC(=O)c2c1ccc1c2OCO1)OCO3 [(-)-Bicuculline methbromide, 1(S), 9(R)] | 76.5% | 
38 | Cc1nnc2n1-c1ccc(Cl)cc1C(c1ccccc1)=NC2 [Alprazolam] | 96.2% | 
39 | COc1ccc2c(c1O)-c1cccc3c1[C@@H](C2)N(C)CC3 [R(-)-Apocodeine hydrochloride] | 89.8% | 
40 | COc1cc2c(cc1OC)C13CCN4CC5=CCOC6CC(=O)N2C1C6C5CC43 (stereo unspecified) |  | 69.2
41 | CC[C@@H](C)C(=O)O[C@H]1[C@H](O)[C@H]2[C@@H](CN3C[C@@H](C)CC[C@H]3[C@@]2(C)O)[C@@H]2C[C@]34O[C@]5(O)[C@@H](OC(=O)[C@@](C)(O)CC)CC[C@@]3(C)[C@@H]5[C@@H](OC(C)=O)[C@@H](OC(C)=O)[C@H]4[C@@]21O | 98.4% | 
42 | NCC1(CC(=O)O)CCCCC1 | 82.9% | 

Laid out differently: results already given.
Row	SMILES	HMGB1-induced TNF-alpha production (compound concentration: 3 uM)	HMGB1-induced TNF-alpha production [1] [%]
34	CC(C)(O)[C@@H]1[C@H]2OC(=O)[C@@H]1[C@]1(O)C[C@H]3O[C@]34C(=O)O[C@H]2[C@]14C [Picrotin]		81
35	NC(Cc1cc(O)c(O)cc1O)C(=O)O (racemic) [6-Hydroxy-DL-DOPA]	98.1%	
36	C[N+]1(C)[C@@H]2CC(OC(=O)[C@H](CO)c3ccccc3)C[C@H]1[C@@H]1O[C@@H]12 (single isomer, unassigned; (-)) [(-)-Scopolamine methyl nitrate]	90.7%	
37	C[N+]1(C)CCc2cc3c(cc2[C@H]1[C@@H]1OC(=O)c2c1ccc1c2OCO1)OCO3 [(-)-Bicuculline methbromide, 1(S), 9(R)]	76.5%	
38	Cc1nnc2n1-c1ccc(Cl)cc1C(c1ccccc1)=NC2 [Alprazolam]	96.2%	

The results go on:

Row | SMILES | HMGB1-induced TNF-alpha production (compound concentration: 3 uM) | HMGB1-induced TNF-alpha production [1] [%]
43 | NCC1(CC(=O)O)CCCCC1 [Gabapentin] | 93.9 ± 18% | 
44 | O=c1cccc2n1C[C@@H]1CNC[C@H]2C1 | 62.2% | 
45 | O=c1cccc2n1C[C@@H]1CNC[C@H]2C1 [Cytisine] |  | 81.9
46 | C=C1CC[C@@]2(O)[C@H]3Cc4ccc(O)c5c4[C@@]2(CCN3CC2CC2)[C@H]1O5 [Nalmefene hydrochloride] | 110% | 
47 | CC(C)Oc1cccnc1N(C)C1CCN(Cc2ccccc2)CC1 | 98% | 
48 | O=[N+]([O-])O[C@H]1CO[C@H]2[C@@H]1OC[C@H]2O[N+](=O)[O-] [Isosorbide dinitrate] | 96.3% | 
49 | O=[N+]([O-])O[C@H]1CO[C@H]2[C@@H]1OC[C@H]2O[N+](=O)[O-] | 70.3% | 
50 | CC(N)C(O)c1ccccc1 (stereo unspecified) | 99.2% | 
51 | CC(N)C(O)c1ccccc1 (stereo unspecified) [Phenylpropanolamine hydrochloride] | 79.1% | 
52 | CC(N)C(O)c1ccccc1 (stereo unspecified) [Phenylpropanolamine] | 98.2% | 
53 | CC1=CCCC2C1(C)CCC(C)C2(C)CC/C(C)=C/Cn1c[n+](C)c2c(N)ncnc21 (stereo unspecified) [AGELASINE (stereochemistry of diterpene unknown)] | 74.9% | 
54 | O=C(CCCN1CCC2(CC1)C(=O)NCN2c1ccccc1)c1ccc(F)cc1 [Spiperone hydrochloride] | 120% | 
55 | O=C(CCCN1CCC2(CC1)C(=O)NCN2c1ccccc1)c1ccc(F)cc1 | 102% | 
56 | O=C(CCCN1CCC2(CC1)C(=O)NCN2c1ccccc1)c1ccc(F)cc1 [Spiperone] | 88 ± 44% | 
57 | CCCN(CCC)C1CCc2ccc(O)cc2C1 (racemic) [(±)-7-Hydroxy-DPAT hydrobromide] | 85.1% | 
58 | CNC1CC(c2ccc(Cl)c(Cl)c2)c2ccccc21 (stereo unspecified) [Indatraline] | 121% | 
59 | CCCCCCC(C)(C)c1ccc([C@@H]2C[C@H](O)CC[C@H]2CCCO)c(O)c1 | 77.2% | 
60 | Cc1ncsc1CCCl [Chlormethiazole hydrochloride] | 98.3% | 
61 | CCC1(c2ccc(N)cc2)CCC(=O)NC1=O (racemic) [(±)-p-Aminoglutethimide] | 90% | 
62 | CCC1(c2ccc(N)cc2)CCC(=O)NC1=O (racemic) [DL-Aminoglutethimide] | 91.5% | 
63 | CCOC(=O)c1cncn1[C@H](C)c1ccccc1 | 85.8% and 95.7% | 

Row | SMILES | HMGB1-induced TNF-alpha production (compound concentration: 3 uM) | HMGB1-induced TNF-alpha production [1] [%]
64 | CCOC(=O)c1cncn1[C@H](C)c1ccccc1 [Etomidate] | 106% | 
65 | CCCn1c(=O)c2[nH]c(C3CCCC3)nc2n(CCCOC(=O)c2ccc(S(=O)(=O)F)cc2)c1=O | 88.6% | 
66 | CC(O)(CS(=O)(=O)c1ccc(F)cc1)C(=O)Nc1ccc(C#N)c(C(F)(F)F)c1 (stereo unspecified) [Bicalutamide (CDX)] | 88.3% | 
67 | CC(O)(CS(=O)(=O)c1ccc(F)cc1)C(=O)Nc1ccc(C#N)c(C(F)(F)F)c1 (stereo unspecified) [Bicalutamide] | 97.7 ± 4.4% | 
68 | CC(O)(CS(=O)(=O)c1ccc(F)cc1)C(=O)Nc1ccc(C#N)c(C(F)(F)F)c1 (stereo unspecified) | 91% | 
69 | CN1CCc2cc3c(cc2C1C1OC(=O)c2c1ccc1c2OCO1)OCO3 (single isomer, unassigned; (+)) [(+)-Bicuculline] |  | 75.9
70 | CC(C)c1cccc(C(C)C)c1O | 90.7% | 
71 | CC(C)c1cccc(C(C)C)c1O [Propofol] | 104 ± 20% | 
72 | C[C@]12CC[C@H](O)C[C@H]1CC[C@@H]1[C@@H]2CC[C@]2(C)[C@@H](C3=CC(=O)OC3)CC[C@]12O [Digitoxigenin] | 74% | 
73 | CCCCCCCCCOc1ccc2[nH]cc(CCN)c2c1 [5-Nonyloxytryptamine] | 98.5% | 
74 | C[C@]1(C(=O)O)CCC[C@]2(C)c3cc(O)ccc3CC[C@@H]12 [Podocarpic acid] |  | 68.2
75 | CCCN1CCC[C@@H]2Cc3n[nH]cc3C[C@H]21 (racemic) [(±)-Quinpirole dihydrochloride] | 91.9% | 
76 | CCCN1CCC[C@@H]2Cc3n[nH]cc3C[C@H]21 | 97.2% | 
77 | CCCN1CCC[C@@H]2Cc3n[nH]cc3C[C@H]21 [(-)-Quinpirole hydrochloride] | 112% | 
78 | CN1C[C@H](CNC(=O)OCc2ccccc2)C[C@@H]2c3cccc4c3c(cn4C)C[C@H]21 [Metergoline] | 79.1 ± 37% | 
79 | CN1C[C@H](CNC(=O)OCc2ccccc2)C[C@@H]2c3cccc4c3c(cn4C)C[C@H]21 | 77% | 
80 | NNc1ccn([C@@H]2O[C@H](CO)[C@@H](O)[C@H]2O)c(=O)n1 [N4-Aminocytidine] |  | 69.5
81 | C=C(C)CN1CC[C@]23c4c5ccc(O)c4O[C@H]2c2[nH]c4ccccc4c2C[C@@]3(O)C1C5 | 74.2% | 
